Results as given in the supplement of paper PMC10849652.
The list shows a part of the results.

Amino acid sequences for entries named in this document (tags omitted). A change or cut given only in a name is not applied to a line headed by its entry.
UniProt Q05397, whole entry, looked up: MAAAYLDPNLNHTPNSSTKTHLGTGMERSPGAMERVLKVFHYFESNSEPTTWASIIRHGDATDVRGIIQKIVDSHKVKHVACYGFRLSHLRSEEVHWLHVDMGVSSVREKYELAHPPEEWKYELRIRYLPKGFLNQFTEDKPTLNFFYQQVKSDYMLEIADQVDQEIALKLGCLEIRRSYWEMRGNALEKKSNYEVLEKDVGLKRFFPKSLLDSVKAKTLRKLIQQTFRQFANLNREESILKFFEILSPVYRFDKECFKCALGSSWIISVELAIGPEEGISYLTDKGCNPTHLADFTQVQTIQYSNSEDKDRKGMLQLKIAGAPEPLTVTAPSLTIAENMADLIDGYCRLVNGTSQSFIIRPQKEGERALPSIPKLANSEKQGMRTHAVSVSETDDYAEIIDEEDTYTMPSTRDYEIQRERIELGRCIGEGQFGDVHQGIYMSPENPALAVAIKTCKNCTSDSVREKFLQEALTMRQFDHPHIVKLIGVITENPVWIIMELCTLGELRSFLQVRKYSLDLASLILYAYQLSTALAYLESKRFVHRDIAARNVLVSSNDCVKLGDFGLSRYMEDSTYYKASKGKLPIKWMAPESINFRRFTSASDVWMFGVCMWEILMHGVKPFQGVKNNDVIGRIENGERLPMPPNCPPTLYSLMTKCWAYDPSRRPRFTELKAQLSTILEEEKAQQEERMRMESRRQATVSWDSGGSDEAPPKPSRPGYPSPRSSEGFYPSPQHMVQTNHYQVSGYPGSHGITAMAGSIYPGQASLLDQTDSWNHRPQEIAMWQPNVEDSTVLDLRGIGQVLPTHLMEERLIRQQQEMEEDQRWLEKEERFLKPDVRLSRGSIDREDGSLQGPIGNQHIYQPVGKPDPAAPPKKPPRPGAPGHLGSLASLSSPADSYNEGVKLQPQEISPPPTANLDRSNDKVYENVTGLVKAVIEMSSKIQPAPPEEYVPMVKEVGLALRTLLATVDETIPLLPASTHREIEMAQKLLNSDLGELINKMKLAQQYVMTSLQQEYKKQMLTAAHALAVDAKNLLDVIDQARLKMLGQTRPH
UniProt Q13308: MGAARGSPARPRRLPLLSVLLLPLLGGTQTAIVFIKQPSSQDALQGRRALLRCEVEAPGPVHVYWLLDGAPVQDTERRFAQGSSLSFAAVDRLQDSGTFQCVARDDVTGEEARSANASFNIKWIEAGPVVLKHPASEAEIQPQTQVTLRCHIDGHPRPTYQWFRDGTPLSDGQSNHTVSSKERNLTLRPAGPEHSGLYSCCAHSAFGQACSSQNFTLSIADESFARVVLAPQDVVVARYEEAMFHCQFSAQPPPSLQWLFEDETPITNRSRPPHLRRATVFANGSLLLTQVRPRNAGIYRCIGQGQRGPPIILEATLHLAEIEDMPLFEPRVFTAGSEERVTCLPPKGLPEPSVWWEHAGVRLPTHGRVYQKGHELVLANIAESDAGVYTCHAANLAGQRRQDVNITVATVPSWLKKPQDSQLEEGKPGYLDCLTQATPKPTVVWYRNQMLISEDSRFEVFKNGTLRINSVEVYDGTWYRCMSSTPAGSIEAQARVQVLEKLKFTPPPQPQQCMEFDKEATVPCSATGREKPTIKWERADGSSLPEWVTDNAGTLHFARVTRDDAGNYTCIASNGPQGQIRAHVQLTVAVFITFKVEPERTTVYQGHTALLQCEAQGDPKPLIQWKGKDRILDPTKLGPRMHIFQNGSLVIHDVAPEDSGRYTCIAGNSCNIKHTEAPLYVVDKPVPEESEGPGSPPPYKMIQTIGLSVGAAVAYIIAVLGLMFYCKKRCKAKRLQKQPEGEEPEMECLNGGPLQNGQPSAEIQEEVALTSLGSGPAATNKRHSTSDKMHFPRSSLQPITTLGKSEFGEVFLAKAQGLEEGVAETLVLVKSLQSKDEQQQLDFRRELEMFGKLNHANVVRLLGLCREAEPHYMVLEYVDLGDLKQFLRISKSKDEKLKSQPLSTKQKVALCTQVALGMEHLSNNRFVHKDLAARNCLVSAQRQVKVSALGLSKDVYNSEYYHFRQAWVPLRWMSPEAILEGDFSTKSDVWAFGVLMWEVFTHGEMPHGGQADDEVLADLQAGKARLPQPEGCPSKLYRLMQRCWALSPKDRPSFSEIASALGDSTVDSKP
UniProt Q5JS54: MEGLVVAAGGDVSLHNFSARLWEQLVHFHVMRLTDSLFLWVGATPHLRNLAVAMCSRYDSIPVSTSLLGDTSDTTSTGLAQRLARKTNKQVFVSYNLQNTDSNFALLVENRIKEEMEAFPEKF
UniProt P25787: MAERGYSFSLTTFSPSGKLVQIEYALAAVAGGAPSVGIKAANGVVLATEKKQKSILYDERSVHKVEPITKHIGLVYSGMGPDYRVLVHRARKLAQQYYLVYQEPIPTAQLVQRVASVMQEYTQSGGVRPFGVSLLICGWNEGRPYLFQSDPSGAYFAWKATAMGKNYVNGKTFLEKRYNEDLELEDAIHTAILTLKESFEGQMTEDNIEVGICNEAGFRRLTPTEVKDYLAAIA
UniProt Q99436: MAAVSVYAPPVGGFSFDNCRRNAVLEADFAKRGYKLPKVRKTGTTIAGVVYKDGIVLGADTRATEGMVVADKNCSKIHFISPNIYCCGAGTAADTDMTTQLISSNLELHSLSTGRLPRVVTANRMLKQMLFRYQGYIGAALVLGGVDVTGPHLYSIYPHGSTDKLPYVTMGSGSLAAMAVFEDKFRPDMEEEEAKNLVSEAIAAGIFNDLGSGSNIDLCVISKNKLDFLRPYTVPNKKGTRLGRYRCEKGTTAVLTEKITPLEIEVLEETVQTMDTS
UniProt Q8TAA3: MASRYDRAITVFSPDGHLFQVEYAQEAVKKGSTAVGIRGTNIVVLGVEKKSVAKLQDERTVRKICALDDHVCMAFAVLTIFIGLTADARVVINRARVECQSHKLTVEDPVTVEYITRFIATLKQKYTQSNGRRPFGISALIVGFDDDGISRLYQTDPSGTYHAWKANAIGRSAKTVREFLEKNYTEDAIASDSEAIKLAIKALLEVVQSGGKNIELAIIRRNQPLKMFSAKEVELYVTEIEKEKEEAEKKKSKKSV
UniProt P26599: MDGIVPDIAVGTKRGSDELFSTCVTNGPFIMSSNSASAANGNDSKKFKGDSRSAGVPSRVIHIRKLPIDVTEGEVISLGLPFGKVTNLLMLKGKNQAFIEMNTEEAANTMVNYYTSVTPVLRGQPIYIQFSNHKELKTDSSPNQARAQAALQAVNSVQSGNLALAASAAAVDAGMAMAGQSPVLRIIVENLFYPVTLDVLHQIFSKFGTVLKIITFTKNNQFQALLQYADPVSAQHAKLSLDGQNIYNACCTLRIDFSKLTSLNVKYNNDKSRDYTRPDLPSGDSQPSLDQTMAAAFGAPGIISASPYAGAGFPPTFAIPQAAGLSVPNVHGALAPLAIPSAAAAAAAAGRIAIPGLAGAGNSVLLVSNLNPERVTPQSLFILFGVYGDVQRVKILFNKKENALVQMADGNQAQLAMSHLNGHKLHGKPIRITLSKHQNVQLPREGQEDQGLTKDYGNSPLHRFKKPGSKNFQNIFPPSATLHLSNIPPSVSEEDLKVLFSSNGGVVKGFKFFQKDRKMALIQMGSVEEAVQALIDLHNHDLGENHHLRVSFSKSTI
UniProt P07602: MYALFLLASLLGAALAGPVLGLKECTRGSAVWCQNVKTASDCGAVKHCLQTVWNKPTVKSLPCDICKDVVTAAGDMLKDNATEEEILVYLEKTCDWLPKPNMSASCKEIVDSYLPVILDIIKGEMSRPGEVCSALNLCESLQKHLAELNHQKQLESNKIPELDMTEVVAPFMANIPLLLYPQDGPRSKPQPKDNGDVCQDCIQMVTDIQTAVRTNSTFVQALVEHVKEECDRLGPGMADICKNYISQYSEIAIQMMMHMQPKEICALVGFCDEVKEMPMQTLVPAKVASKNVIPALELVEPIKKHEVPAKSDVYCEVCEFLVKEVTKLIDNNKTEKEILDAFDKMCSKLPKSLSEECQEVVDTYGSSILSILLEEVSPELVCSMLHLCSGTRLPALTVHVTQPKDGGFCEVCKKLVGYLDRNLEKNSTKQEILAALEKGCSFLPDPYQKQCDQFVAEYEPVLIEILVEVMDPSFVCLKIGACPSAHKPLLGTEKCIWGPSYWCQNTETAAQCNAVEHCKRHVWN
UniProt P08575: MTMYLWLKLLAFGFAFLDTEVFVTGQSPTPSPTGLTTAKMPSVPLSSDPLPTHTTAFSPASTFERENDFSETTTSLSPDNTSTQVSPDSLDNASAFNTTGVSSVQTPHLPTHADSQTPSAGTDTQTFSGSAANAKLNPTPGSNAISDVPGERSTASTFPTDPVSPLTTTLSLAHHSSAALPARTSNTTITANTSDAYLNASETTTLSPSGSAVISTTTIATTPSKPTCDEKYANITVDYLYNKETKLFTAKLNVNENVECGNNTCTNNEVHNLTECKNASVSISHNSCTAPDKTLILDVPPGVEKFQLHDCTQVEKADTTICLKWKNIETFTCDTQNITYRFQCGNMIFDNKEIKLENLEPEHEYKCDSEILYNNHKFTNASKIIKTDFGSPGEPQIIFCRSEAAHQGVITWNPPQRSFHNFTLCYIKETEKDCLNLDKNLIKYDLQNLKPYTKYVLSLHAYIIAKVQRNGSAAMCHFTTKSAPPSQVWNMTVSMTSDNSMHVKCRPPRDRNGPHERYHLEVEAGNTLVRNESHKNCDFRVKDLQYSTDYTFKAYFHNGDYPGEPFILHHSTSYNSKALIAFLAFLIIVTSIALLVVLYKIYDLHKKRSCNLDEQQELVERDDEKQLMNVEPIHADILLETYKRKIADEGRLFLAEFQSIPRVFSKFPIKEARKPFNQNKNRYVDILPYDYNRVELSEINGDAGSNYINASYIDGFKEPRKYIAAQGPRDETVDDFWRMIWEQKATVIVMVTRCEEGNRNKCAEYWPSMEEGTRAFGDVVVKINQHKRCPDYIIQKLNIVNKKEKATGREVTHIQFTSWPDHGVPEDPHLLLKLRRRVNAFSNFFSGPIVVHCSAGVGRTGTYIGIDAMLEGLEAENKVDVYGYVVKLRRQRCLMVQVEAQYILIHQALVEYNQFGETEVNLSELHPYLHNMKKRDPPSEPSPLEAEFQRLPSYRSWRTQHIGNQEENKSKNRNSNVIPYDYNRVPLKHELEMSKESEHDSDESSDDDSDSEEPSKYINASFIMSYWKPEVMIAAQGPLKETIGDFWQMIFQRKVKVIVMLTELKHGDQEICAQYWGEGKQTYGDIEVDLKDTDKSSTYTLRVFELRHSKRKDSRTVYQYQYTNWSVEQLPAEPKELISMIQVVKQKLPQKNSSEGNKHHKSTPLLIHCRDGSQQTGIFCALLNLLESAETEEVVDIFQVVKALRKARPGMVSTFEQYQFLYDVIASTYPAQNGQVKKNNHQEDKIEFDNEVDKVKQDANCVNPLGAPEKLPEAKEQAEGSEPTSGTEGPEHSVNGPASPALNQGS
UniProt Q9BRP8: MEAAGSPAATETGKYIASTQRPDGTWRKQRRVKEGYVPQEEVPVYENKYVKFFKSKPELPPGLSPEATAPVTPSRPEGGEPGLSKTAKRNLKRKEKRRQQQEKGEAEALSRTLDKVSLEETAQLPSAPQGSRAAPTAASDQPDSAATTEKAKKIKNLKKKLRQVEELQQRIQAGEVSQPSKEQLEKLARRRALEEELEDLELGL
UniProt P28066: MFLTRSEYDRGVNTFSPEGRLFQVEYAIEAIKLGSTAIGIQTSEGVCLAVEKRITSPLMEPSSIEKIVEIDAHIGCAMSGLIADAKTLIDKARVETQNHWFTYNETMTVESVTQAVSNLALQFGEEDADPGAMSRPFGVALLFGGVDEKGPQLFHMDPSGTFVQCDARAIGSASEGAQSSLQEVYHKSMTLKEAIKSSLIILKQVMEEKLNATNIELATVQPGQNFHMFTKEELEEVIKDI
UniProt Q53H96: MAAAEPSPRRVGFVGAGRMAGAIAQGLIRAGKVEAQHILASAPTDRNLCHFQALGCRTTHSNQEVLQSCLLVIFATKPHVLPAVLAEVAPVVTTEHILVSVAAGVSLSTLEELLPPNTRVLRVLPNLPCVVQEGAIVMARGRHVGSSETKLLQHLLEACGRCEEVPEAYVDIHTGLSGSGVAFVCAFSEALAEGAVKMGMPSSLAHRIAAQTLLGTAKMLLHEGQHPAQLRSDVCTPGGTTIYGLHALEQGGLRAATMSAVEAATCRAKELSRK
UniProt Q96C36: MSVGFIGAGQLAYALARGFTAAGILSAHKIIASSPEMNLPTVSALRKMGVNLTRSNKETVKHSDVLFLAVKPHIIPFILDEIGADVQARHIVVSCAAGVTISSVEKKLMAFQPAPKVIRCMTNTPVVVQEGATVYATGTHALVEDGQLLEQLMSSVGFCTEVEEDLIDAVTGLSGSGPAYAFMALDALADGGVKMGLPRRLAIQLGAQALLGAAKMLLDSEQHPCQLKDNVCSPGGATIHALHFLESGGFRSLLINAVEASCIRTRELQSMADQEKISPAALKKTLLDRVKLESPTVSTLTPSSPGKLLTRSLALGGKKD

Assays:
Assay in all cases: log2 fold change, soluble protein after heating vs DMSO (PISA); higher = thermal stabilisation; K562 cells, 10 uM, 30 min; active = over 0.2 and 3.5 SD of the protein, either way, in both replicates (recomputed)
saracatinib = compound: CN1CCN(CCOc2cc(OC3CCOCC3)c3c(Nc4c(Cl)ccc5c4OCO5)ncnc3c2)CC1 [saracatinib]
How it was run: (§1)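 Soluble protein was defined as the supernatant after 21,000xg for 90 min. It came from K562 cells at 2×10^6 cells/mL given 10 μM compound for 30 min, heated in aliquots for 3 min across 48°C-58°C, pooled, and extracted in PBS with 0.5% NP-40 at 4°C, and was quantified by TMTpro 16plex LC-MS/MS with equalised channel sums. Thermal stability against control samples, from duplicates, is reported as log2 fold change.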

sotrastaurin = compound: CN1CCN(c2nc(C3=C(c4c[nH]c5ccccc45)C(=O)NC3=O)c3ccccc3n2)CC1 [sotrastaurin]
How it was run: as §1

alvocidib = compound: CN1CC[C@H](c2c(O)cc(O)c3c(=O)cc(-c4ccccc4Cl)oc23)[C@H](O)C1 [alvocidib]
How it was run: as §1

Tubastatin A = compound: CN1CCc2c(c3ccccc3n2Cc2ccc(C(=O)NO)cc2)C1 [Tubastatin A]
How it was run: as §1

[1] = compound: CNC(=O)C1=CC=CC=C1NC2=NC(=NC=C2Cl)NC3=C(C=C(C=C3)N4CCOCC4)OC
How it was run: as §1

defactinib = compound: CNC(=O)c1ccc(Nc2ncc(C(F)(F)F)c(NCc3nccnc3N(C)S(C)(=O)=O)n2)cc1 [defactinib]
How it was run: as §1

rucaparib = compound: CNCc1ccc(-c2[nH]c3cc(F)cc4c3c2CCNC4=O)cc1 [rucaparib]
How it was run: as §1

[2] = compound: CNc1nc(-c2ccc3c(N)n[nH]c3c2)cc(N2C[C@@H](C(=O)NC3CCCCC3)CC[C@H]2C)n1
How it was run: as §1

encorafenib = compound: COC(=O)N[C@@H](C)CNc1nccc(-c2cn(C(C)C)nc2-c2cc(Cl)cc(NS(C)(=O)=O)c2F)n1 [encorafenib]
How it was run: as §1

[3] = compound: COC(=O)[C@H](CCSC)NC(=O)C1=C(C=C(C=C1)NC[C@H](CS)N)C2=CC=CC=C2
How it was run: as §1

[4] = compound: COC1=CC=C(C=C1)CN2C=CC3=C2C=C(C=C3)C(=O)NO
How it was run: as §1

filanesib = compound: CON(C)C(=O)N1N=C(c2cc(F)ccc2F)S[C@@]1(CCCN)c1ccccc1 [filanesib]
How it was run: as §1

zotarolimus = compound: CO[C@H]1C[C@@H]2CC[C@@H](C)[C@@](O)(O2)C(=O)C(=O)N2CCCC[C@H]2C(=O)O[C@H]([C@H](C)C[C@@H]2CC[C@H](n3cnnn3)[C@H](OC)C2)CC(=O)[C@H](C)/C=C(\C)[C@@H](O)[C@@H](OC)C(=O)[C@H](C)C[C@H](C)/C=C/C=C/C=C/1C [zotarolimus]
How it was run: as §1

idasanutlin = compound: COc1cc(C(=O)O)ccc1NC(=O)[C@@H]1N[C@@H](CC(C)(C)C)[C@](C#N)(c2ccc(Cl)cc2F)[C@H]1c1cccc(Cl)c1F [idasanutlin]
How it was run: as §1

alisertib = compound: COc1cc(Nc2ncc3c(n2)-c2ccc(Cl)cc2C(c2c(F)cccc2OC)=NC3)ccc1C(=O)O [alisertib]
How it was run: as §1

[5] = compound: COc1cc2nc(-c3cc(F)ccc3O)nc(N[C@@H]3CNC[C@H]3C(C)(C)O)c2cc1OC
How it was run: as §1

gefitinib = compound: COc1cc2ncnc(Nc3ccc(F)c(Cl)c3)c2cc1OCCCN1CCOCC1 [gefitinib]
How it was run: as §1

[6] = compound: COc1cccc2cc(-c3nc([C@H]4CC[C@H](C(=O)O)CC4)n4ncnc(N)c34)[nH]c12
How it was run: as §1

lapatinib = compound: CS(=O)(=O)CCNCc1ccc(-c2ccc3ncnc(Nc4ccc(OCc5cccc(F)c5)c(Cl)c4)c3c2)o1 [lapatinib]
How it was run: as §1

pictilisib = compound: CS(=O)(=O)N1CCN(Cc2cc3nc(-c4cccc5[nH]ncc45)nc(N4CCOCC4)c3s2)CC1 [pictilisib]
How it was run: as §1

Measured: log2 fold change

PTK2 (UniProt Q05397)
inactive: saracatinib 0.043 | sotrastaurin 0.003 | alvocidib -0.026 | Tubastatin A -0.037 | [1] 0.158 | defactinib 0.163 | rucaparib -0.039 | [2] -0.012 | encorafenib -0.001 | [3] -0.006 | [4] -0.094 | filanesib -0.05 | zotarolimus 0.02 | idasanutlin -0.083 | alisertib -0.009 | [5] 0.052 | gefitinib -0.021 | [6] 0.041 | lapatinib -0.009 | pictilisib -0.01

PTK7 isoform 6 (UniProt Q13308)
inactive: saracatinib 0.086 | sotrastaurin -0.094 | alvocidib -0.033 | Tubastatin A 0.008 | [1] -0.022 | defactinib -0.138 | rucaparib 0.061 | [2] 0.023 | encorafenib 0.047 | [3] -0.044 | [4] -0.096 | filanesib 0.205 | zotarolimus -0.026 | idasanutlin -0.002 | alisertib -0.128 | [5] 0.141 | gefitinib 0.01 | [6] 0.031 | lapatinib -0.035 | pictilisib 0.044

PSMG4 isoform 2 (UniProt Q5JS54)
inactive: saracatinib -0.053 | sotrastaurin -0.173 | alvocidib 0.161 | Tubastatin A -0.017 | [1] 0.027 | defactinib 0 | rucaparib -0.106 | [2] -0.012 | encorafenib -0.026 | [3] 0.069 | [4] -0.13 | filanesib -0.069 | zotarolimus 0.071 | idasanutlin 0.102 | alisertib -0.166 | [5] -0.169 | gefitinib -0.063 | [6] -0.005 | lapatinib 0.095 | pictilisib -0.147

PTPN11 isoform 1 (UniProt Q06124)
inactive: saracatinib 0.024 | sotrastaurin 0.003 | alvocidib -0.052 | Tubastatin A -0.003 | [1] 0.004 | defactinib -0.057 | rucaparib -0.012 | [2] -0.011 | encorafenib -0.002 | [3] -0.011 | [4] 0.005 | filanesib -0.017 | zotarolimus 0.039 | idasanutlin -0.009 | alisertib -0.072 | [5] 0.039 | gefitinib 0.014 | [6] -0.001 | lapatinib -0.019 | pictilisib -0.01

PSMA2 (UniProt P25787)
inactive: saracatinib -0.004 | sotrastaurin -0.014 | alvocidib 0.027 | Tubastatin A -0.004 | [1] -0.033 | defactinib 0.022 | rucaparib 0.018 | [2] 0.028 | encorafenib 0.001 | [3] 0.001 | [4] 0.028 | filanesib 0 | zotarolimus 0.042 | idasanutlin 0.02 | alisertib -0.064 | [5] -0.009 | gefitinib -0.029 | [6] -0.03 | lapatinib 0.033 | pictilisib 0.021

PSMB7 (UniProt Q99436)
inactive: saracatinib 0 | sotrastaurin 0.006 | alvocidib 0.091 | Tubastatin A -0.023 | [1] -0.008 | defactinib 0.039 | rucaparib 0 | [2] 0 | encorafenib 0.01 | [3] 0.019 | [4] -0.05 | filanesib 0.039 | zotarolimus -0.025 | idasanutlin 0.034 | alisertib -0.008 | [5] -0.037 | gefitinib -0.013 | [6] 0.022 | lapatinib 0.061 | pictilisib -0.005

PSMA8 (UniProt Q8TAA3)
inactive: saracatinib -0.04 | sotrastaurin 0.018 | alvocidib -0.01 | Tubastatin A -0.012 | [1] -0.01 | defactinib 0.036 | rucaparib 0.025 | [2] 0.046 | encorafenib 0.021 | [3] -0.042 | [4] -0.032 | filanesib 0.039 | zotarolimus -0.007 | idasanutlin 0.005 | alisertib -0.074 | [5] -0.02 | gefitinib -0.038 | [6] 0.026 | lapatinib -0.011 | pictilisib 0.089

PTBP1 (UniProt P26599)
inactive: saracatinib -0.009 | sotrastaurin -0.014 | alvocidib -0.099 | Tubastatin A 0.062 | [1] -0.021 | defactinib -0.208 | rucaparib 0.009 | [2] 0.015 | encorafenib 0.064 | [3] -0.032 | [4] 0.087 | filanesib 0.068 | zotarolimus 0.078 | idasanutlin 0.008 | alisertib -0.067 | [5] -0.039 | gefitinib -0.006 | [6] 0.031 | lapatinib -0.005 | pictilisib -0.032

PWP1 (UniProt Q13610)
inactive: saracatinib -0.043 | sotrastaurin 0.007 | alvocidib 0.364 | Tubastatin A 0.152 | [1] -0.03 | defactinib 0.431 | rucaparib 0.448 | [2] 0.115 | encorafenib 0.13 | [3] -0.001 | [4] -0.07 | filanesib 0.486 | zotarolimus 0.038 | idasanutlin 0.258 | alisertib -0.131 | [5] -0.121 | gefitinib -0.106 | [6] -0.189 | lapatinib 0.149 | pictilisib -0.137

PSAP isoform 3 (UniProt P07602)
inactive: saracatinib -0.049 | sotrastaurin -0.019 | alvocidib 0.025 | Tubastatin A 0.024 | [1] 0.092 | defactinib 0.044 | rucaparib -0.131 | [2] -0.034 | encorafenib 0.039 | [3] 0.018 | [4] 0 | filanesib 0.011 | zotarolimus 0.022 | idasanutlin 0.011 | alisertib -0.014 | [5] -0.05 | gefitinib 0.015 | [6] 0.072 | lapatinib -0.045 | pictilisib 0.035

PTPRC (UniProt P08575)
inactive: saracatinib 0.074 | sotrastaurin 0.007 | alvocidib -0.027 | Tubastatin A -0.039 | [1] 0.028 | defactinib -0.035 | rucaparib -0.031 | [2] 0.053 | encorafenib -0.001 | [3] 0.022 | [4] -0.02 | filanesib 0.026 | zotarolimus -0.028 | idasanutlin -0.01 | alisertib -0.049 | [5] 0.063 | gefitinib 0.02 | [6] 0.041 | lapatinib -0.018 | pictilisib 0.087

PYM1 (UniProt Q9BRP8)
inactive: saracatinib -0.087 | sotrastaurin 0.031 | alvocidib 0.157 | Tubastatin A 0.094 | [1] -0.022 | defactinib 0.141 | rucaparib 0.128 | [2] 0.052 | encorafenib 0.057 | [3] 0.006 | [4] -0.038 | filanesib 0.111 | zotarolimus 0.008 | idasanutlin 0.01 | alisertib -0.043 | [5] 0 | gefitinib -0.054 | [6] -0.028 | lapatinib -0.017 | pictilisib -0.044

PSMA5 (UniProt P28066)
inactive: saracatinib -0.011 | sotrastaurin -0.033 | alvocidib 0.104 | Tubastatin A -0.018 | [1] -0.014 | defactinib 0.024 | rucaparib 0.007 | [2] -0.009 | encorafenib 0.003 | [3] -0.017 | [4] 0.018 | filanesib 0.003 | zotarolimus -0.008 | idasanutlin 0.027 | alisertib -0.05 | [5] -0.068 | gefitinib -0.018 | [6] 0.013 | lapatinib 0.05 | pictilisib -0.052

PYCR3 (UniProt Q53H96)
inactive: saracatinib 0.047 | sotrastaurin 0.017 | alvocidib -0.005 | Tubastatin A -0.029 | [1] -0.002 | defactinib -0.009 | rucaparib -0.021 | [2] 0.001 | encorafenib -0.03 | [3] 0.007 | [4] 0.06 | filanesib -0.041 | zotarolimus 0.005 | idasanutlin -0.019 | alisertib -0.035 | [5] 0.033 | gefitinib 0.017 | [6] 0.056 | lapatinib -0.02 | pictilisib 0.007

Quoted from the listing (2 entries):
PSAP isoform 3 (UniProt P07602)
inactive: saracatinib -0.049 | sotrastaurin -0.019 | alvocidib 0.025 | Tubastatin A 0.024 | [1] 0.092 | defactinib 0.044 | rucaparib -0.131 | [2] -0.034 | encorafenib 0.039 | [3] 0.018 | [4] 0 | filanesib 0.011 | zotarolimus 0.022 | idasanutlin 0.011 | alisertib -0.014 | [5] -0.05 | gefitinib 0.015 | [6] 0.072 | lapatinib -0.045 | pictilisib 0.035

PTPRC (UniProt P08575)
inactive: saracatinib 0.074 | sotrastaurin 0.007 | alvocidib -0.027 | Tubastatin A -0.039 | [1] 0.028 | defactinib -0.035 | rucaparib -0.031 | [2] 0.053 | encorafenib -0.001 | [3] 0.022 | [4] -0.02 | filanesib 0.026 | zotarolimus -0.028 | idasanutlin -0.01 | alisertib -0.049 | [5] 0.063 | gefitinib 0.02 | [6] 0.041 | lapatinib -0.018 | pictilisib 0.087

More records.

PYCR2 (UniProt Q96C36)
inactive: saracatinib 0.069 | sotrastaurin 0.015 | alvocidib -0.031 | Tubastatin A -0.049 | [1] -0.006 | defactinib -0.012 | rucaparib 0.004 | [2] 0.014 | encorafenib -0.014 | [3] 0.002 | [4] 0.031 | filanesib -0.08 | zotarolimus -0.01 | idasanutlin -0.038 | alisertib -0.025 | [5] -0.026 | gefitinib 0.011 | [6] 0.035 | lapatinib 0.028 | pictilisib -0.066
